The target in this assay is Flag RbAp46 (Xenopus, recombinant) (Xenopus) (UniProt Q8AVH1). Briefly: pull-down; GST-histone tails coupled to NHS Sepharose (20 μl resin) with 0.7 μg Hat1, RbAp46 or RbAp48, or RbAp46 with Hat1, in 150 μl 20 mM K-HEPES pH 7.4, 50 mM KCl, 0.1% Tween-20, 5 mM DTT; 2 h at 4 °C; washes with 300 mM KCl; coomassie-stained gel; both purified.

Protein sequences, listed by entry. Tags and fused reporters are not part of them. Lines headed by an entry give the natural chain unless they say otherwise; changes in a name come on top.
UniProt Q8AVH1: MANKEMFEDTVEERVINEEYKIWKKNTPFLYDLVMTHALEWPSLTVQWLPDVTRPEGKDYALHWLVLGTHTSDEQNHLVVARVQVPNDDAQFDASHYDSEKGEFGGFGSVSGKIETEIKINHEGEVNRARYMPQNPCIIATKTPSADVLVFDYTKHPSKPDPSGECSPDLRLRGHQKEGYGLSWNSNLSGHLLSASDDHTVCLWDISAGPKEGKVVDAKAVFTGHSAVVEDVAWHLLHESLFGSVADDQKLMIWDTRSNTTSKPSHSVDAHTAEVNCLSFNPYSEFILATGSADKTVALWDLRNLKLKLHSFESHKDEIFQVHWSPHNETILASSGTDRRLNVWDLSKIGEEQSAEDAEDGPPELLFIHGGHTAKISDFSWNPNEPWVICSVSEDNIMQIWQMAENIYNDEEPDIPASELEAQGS
UniProt Q641D5: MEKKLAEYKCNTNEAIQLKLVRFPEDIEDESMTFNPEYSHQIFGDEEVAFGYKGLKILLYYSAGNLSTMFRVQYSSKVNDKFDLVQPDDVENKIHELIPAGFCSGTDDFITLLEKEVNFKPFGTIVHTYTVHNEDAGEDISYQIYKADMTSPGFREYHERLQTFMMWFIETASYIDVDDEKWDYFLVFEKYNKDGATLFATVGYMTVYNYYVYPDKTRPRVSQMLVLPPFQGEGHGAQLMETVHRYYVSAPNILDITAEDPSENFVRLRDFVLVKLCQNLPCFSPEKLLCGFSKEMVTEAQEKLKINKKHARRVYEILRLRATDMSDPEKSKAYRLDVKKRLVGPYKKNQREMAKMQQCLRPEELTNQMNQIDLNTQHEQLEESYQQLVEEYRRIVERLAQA

These are yes or no findings as the source states them, for the method shown. A result given as binding can be weak or reduced; the word gives no strength.

Consider “Flag Hat1 (Xenopus, recombinant) (from UniProt Q641D5) (enzyme)”, for which the binding result was “binds”.

The values are drawn from publication PMC5097169.
